Data as given in PubChem BioAssay AID504808 (Drosophila RNAi Screening Center, 2011)
Test: 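Chromatin factors that keep E2F targets switched off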 (primary screen). Cell system: Drosophila S2 cells. Reagent: long dsRNA against Drosophila genes. Measurement: 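Firefly luciferase driven by E2F sites, normalised to Renilla luciferase on the same minimal promoter, measured by plate reader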. Reading the numbers: E2F firefly: higher = more E2F reporter activity; Renilla normaliser: higher = more normaliser reporter signal. Active means: 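Called active if the normalised E2F reporter went up by over 50%; the cutoff is arbitrary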.
The screen tested about 21,000 reagents; this is a random part of those with a known target gene and a result. In the full data, 18 (0.084%) got an active call. 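Raw counts without plate normalisation, one of two replicates; the ratio scores behind the calls were not deposited.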 Entries without a mark were called inactive. The record does not give: the amount of reagent, the time to read-out.

The first 2 records as a preview:
gene knocked down	amplicon	E2F firefly, rep 1	Renilla normaliser, rep 1
CG30043	DRSC06285	93436	4378
RNaseZ	DRSC06845	1.56e5	4990

The listing, from the start:
gene knocked down	amplicon	E2F firefly, rep 1	Renilla normaliser, rep 1
CG30043	DRSC06285	93436	4378
RNaseZ	DRSC06845	1.56e5	4990
Syt7	DRSC17130	1.33e5	6629
Syt7	DRSC17159	60280	3483
CG10560	DRSC14256	98922	5382
CG15155	DRSC02456	1.09e5	4695
CG14431	DRSC17925	91121	5428
Or43a	DRSC07485	1.65e5	5197
BBS5	DRSC12168	1.49e5	7939
CG14207	DRSC19562	1.60e5	5885
CG14207	DRSC19563	1.32e5	157
CG18649	DRSC10334	1.41e5	7217
Uggt	DRSC11315	66039	3305
CG42355	DRSC07967	1.07e5	4309
Pgant35A	DRSC03557	1.02e5	4394
CG14759	DRSC06494	1.55e5	5585
CG4239	DRSC19885	7829	784
CG4752	DRSC04486	98292	4139
CG31161	DRSC16144	90503	5297
CG30403	DRSC03889	46851	4158
Gr5a	DRSC18085	60244	4354
CG15578	DRSC18066	1.11e5	5006
CG34450	DRSC17822	8131	708
CG12715	DRSC19492	1.48e5	6588
CG4074	DRSC11752	1.49e5	6115
GIIIspla2	DRSC18094	7652	692
CG6209	DRSC06968	1.01e5	4364
CG42538	DRSC09412	1.28e5	4717
Ork1	DRSC20266	7352	756
mRpS25	DRSC19598	2.10e5	11805
CG3894	DRSC01762	1.24e5	4829
CG3894	DRSC04012	1.37e5	6720
CG3894	DRSC04429	89046	2880
CG14218	DRSC19575	1.19e5	7549
janB	DRSC16973	1.11e5	6091
MCPH1	DRSC06309	157	33
MCPH1	DRSC07308	1.08e5	4228
CG17994	DRSC04877	1.12e5	4664
gb	DRSC15961	1699	1012
Ns4	DRSC03199	83514	3321
DUBAI	DRSC07281	2591	188
CG31533	DRSC13018	88243	2528
CG32333	DRSC08627	79766	3562
CG32333	DRSC08629	89075	4516
CG10862	DRSC08170	97686	3913
pst	DRSC11003	77944	4377
TbCMF46	DRSC02221	1.38e5	4862
Mvl	DRSC16752	72295	3327
CG12620	DRSC02177	1.03e5	4431
SC35	DRSC02502	82166	4027
SC35	DRSC03425	95072	4163
Ccp84Ad	DRSC12589	1.15e5	6121
SK	DRSC17387	75923	2358
SK	DRSC17751	86849	6673
SK	DRSC17887	56227	4362
SK	DRSC17888	47639	3784
SK	DRSC18353	7970	776
CG12134	DRSC06109	1.35e5	4378
CG13731	DRSC10059	1.57e5	7079
Cpr62Ba	DRSC08403	95876	4191
BNIP3	DRSC11761	1.19e5	5451
CG30373	DRSC05081	1.27e5	5569
CG17078	DRSC00484	1.53e5	5772
eIF4E3	DRSC10952	77523	3395
pigeon	DRSC03565	76321	3227
Cyp6u1	DRSC05015	79488	3538
Tsp42Ej	DRSC06113	81119	3670
CG42650	DRSC12462	52250	3878
Fic	DRSC03247	90132	3834
Ak3	DRSC16075	1.33e5	5783
CG6118	DRSC15968	92602	5782
Atg4b	DRSC15988	77773	3484
CG14323	DRSC14802	99321	5427
CG32066	DRSC10652	70840	3138
CG32066	DRSC10653	95921	5164
CG1662	DRSC19754	7504	792
Awh	DRSC08140	1.03e5	4844
CG18467	DRSC06758	1.65e5	4629
CG44837	DRSC10133	82518	5146
CG44837	DRSC10558	1.32e5	7375
CG13284	DRSC02256	1.17e5	4841
CG14715	DRSC14938	59644	3384
PIG-Wa	DRSC00728	1.49e5	4820
TfIIFbeta	DRSC16884	1.43e5	7419
